Source: PMC12185749

T1: wild-type CLPTM1L-HA (UniProt Q96KA5)
T1 sequence: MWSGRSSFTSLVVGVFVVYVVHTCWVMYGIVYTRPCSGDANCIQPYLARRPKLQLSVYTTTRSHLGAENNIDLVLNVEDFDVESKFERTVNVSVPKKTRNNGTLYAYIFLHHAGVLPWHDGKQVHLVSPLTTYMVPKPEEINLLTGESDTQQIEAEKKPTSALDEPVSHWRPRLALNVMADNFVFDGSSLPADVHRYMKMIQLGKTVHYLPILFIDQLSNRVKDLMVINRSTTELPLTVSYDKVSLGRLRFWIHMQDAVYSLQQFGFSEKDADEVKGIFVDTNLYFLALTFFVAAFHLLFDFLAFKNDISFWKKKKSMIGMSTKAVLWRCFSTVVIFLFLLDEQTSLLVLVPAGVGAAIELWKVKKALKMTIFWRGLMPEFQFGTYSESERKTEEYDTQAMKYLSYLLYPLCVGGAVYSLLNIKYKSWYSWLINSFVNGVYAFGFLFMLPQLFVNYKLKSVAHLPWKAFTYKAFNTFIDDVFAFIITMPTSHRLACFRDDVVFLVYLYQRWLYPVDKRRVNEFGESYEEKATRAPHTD


What was measured:
wild-type CLPTM1L-HA = target: T1, wild-type CLPTM1L-HA; experiment: co-IP; 293T cells co-transfected with ERLIN2-FLAG and CLPTM1L-HA (wild type or deletion mutants); immunoprecipitation with anti-HA antibodies, immunoblot
CLPTM1L-HA-ΔC2 = CLPTM1L-HA-ΔC2 (UniProt Q96KA5); experiment: as above

binding (wild-type CLPTM1L-HA) | binding (CLPTM1L-HA-ΔC2) | Molecule
no binding |  | ERLIN2-FLAG-ΔL5 (from UniProt O94905)
 | no binding | wild-type ERLIN2-FLAG (protein, UniProt O94905 1-339) MAQLGAVVAVASSFFCASLFSAVHKIEEGHIGVYYRGGALLTSTSGPGFHLMLPFITSYKSVQTTLQTDEVKNVPCGTSGGVMIYFDRIEVVNFLVPNAVYDIVKNYTADYDKALIFNKIHHELNQFCSVHTLQEVYIELFDQIDENLKLALQQDLTSMAPGLVIQAVRVTKPNIPEAIRRNYELMESEKTKLLIAAQKQKVVEKEAETERKKALIEAEKVAQVAEITYGQKVMEKETEKKISEIEDAAFLAREKAKADAECYTAMKIAEANKLKLTPEYLQLMKYKAIASNSKIYFGKDIPNMFMDSAGSVSKQFEGLADKLSFGLEDEPLETATKEN

These are yes or no findings as the source states them, for the method shown. In cells and extracts the contact can be indirect. Sequences can lack the tags named with a protein.
